Laboratory results as given in PubChem BioAssay AID588590 (National Center for Advancing Translational Sciences (NCATS), 2011).
Screen size: about 390,000 compounds; about 4,000 (1%) were called active. Inconclusive results, whose numbers are uncertain, are shown with a selection of clear calls. Calls come from the whole dose curve; as a rule, active = well fitted inhibition curve with a large enough effect; inconclusive = small, poorly fitted or top-dose-only effect, or another doubt; inactive = no such curve, though single readings can be large or run the other way. A potency beside an inconclusive call is a rough fit, not a confirmed value.

Sequences of proteins named here, by UniProt entry; tags and fusion partners are left off. A change or cut given only in a name is not applied to a line headed by its entry.
UniProt Q9UNA4: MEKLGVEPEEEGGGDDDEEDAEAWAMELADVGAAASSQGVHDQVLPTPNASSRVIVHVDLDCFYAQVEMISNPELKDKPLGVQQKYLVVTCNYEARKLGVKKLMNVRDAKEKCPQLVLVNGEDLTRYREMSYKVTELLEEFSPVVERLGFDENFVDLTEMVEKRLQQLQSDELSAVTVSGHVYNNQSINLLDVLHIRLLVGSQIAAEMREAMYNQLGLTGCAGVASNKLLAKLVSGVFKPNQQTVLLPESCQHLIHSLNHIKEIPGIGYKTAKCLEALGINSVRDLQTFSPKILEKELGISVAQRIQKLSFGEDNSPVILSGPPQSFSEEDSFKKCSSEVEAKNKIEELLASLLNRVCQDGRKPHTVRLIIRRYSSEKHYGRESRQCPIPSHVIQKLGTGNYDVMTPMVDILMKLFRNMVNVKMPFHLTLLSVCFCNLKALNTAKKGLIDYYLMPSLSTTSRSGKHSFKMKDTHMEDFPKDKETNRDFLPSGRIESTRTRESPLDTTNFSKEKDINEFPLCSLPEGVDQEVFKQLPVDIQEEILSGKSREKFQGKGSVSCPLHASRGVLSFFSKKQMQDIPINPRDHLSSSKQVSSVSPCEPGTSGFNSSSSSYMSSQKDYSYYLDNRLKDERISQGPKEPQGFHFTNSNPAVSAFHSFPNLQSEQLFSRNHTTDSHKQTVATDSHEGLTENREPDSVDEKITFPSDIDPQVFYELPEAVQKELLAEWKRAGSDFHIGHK

biological target: DNA polymerase iota (Homo sapiens) (UniProt Q9UNA4); assay: qHTS for Inhibitors of Polymerase Iota; details: Pol iota fluorescent replication assay, 10 min; series mostly up to 115 µM; activity, negative = inhibition: at the top concentration
Summary of the method: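 Pol iota at 10 nM preincubated 15 min with compounds at room temperature; reaction started with fluorescent substrate, 50 nM final. Fluorescence read kinetically at 0 and 10 min; buffer-only wells as negative control.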
Potency is the fitted concentration of half-maximal effect.

Compound | activity, negative = inhibition | Potency
COc1ccc(NC(=O)CC23CC4CC(CC(Br)(C4)C2)C3)c(OC)c1 | inactive: 60.7% | 
CCC1CCc2c(sc(NC(=O)C3CC=CCC3C(=O)O)c2C#N)C1 (stereo not drawn) | inactive: -6.95% | 
CN(C)CCNc1ncnc2oc(-c3ccccc3)c(-c3ccccc3)c12 |  | inconclusive: 89.1 µM [inhibitor, single point]
NC(=O)c1ccccc1Nc1nc2nc3ccccc3c(=O)n2cc1Br |  | inconclusive: 17.8 µM [inhibitor, partial curve, poor fit]
CC(=O)Nc1ccc(NC(=O)Cn2c(=O)n(-c3ccc(F)cc3)c(=O)c3oc4ccccc4c32)cc1 |  | inconclusive: 50.1 µM [inhibitor, partial curve]
CCC(CC)C(=O)Nc1c(C(=O)N2CCN(c3ccccc3)CC2)oc2ccccc12 |  | inconclusive: 50.1 µM [inhibitor, partial curve]
Cc1nnc(NC(=O)C(C)Sc2nnc(CNC(=O)c3ccccc3F)n2C)s1 (stereo not drawn) |  | inconclusive: 56.2 µM [inhibitor, partial curve, poor fit]
COc1ccc(CCNC(=O)CSc2ccc3ccccc3c2)cc1OC |  | inconclusive: 20 µM [inhibitor, partial curve, poor fit]
O=[N+]([O-])c1cccnc1Oc1ccc(F)cc1 |  | inconclusive: 39.8 µM [inhibitor, partial curve, poor fit]
CCOC(=O)c1c(C)[nH]c(C)c1S(=O)(=O)N1CCC(C(=O)N2CCN(c3cccc(C)c3C)CC2)CC1 | inactive: 21.9% | 
O=c1c2ccc(Cl)cc2nc2n1CC/C2=C\c1cccc(O)c1 | inactive: 6.27% | 
C=CCn1c(=O)[nH]c2cc(C(=O)N3CCN(c4ccc(C(C)=O)cc4)CC3)ccc2c1=O |  | inconclusive: 14.1 µM [inhibitor, full curve, poor fit]
O=C(Nc1ccc(F)cc1)c1ccc(Cn2nc(N3CCN(c4ccccc4)CC3)ccc2=O)o1 |  | inconclusive: 79.4 µM [inhibitor, single point]
Cc1ccc(-c2csc3ncnc(N4CCN(Cc5ccccc5)CC4)c23)cc1 |  | inconclusive: 39.8 µM [inhibitor, single point]
c1ccc(Cn2c[n+](Cc3ccccc3)c3ccccc32)cc1 |  | inconclusive: 12.6 µM [inhibitor, partial curve]
Cc1cccc(COc2ccccc2C(=O)NC2CCC(O)CC2)c1 (stereo not drawn) | inactive: 50.2% | 
COc1ccc(OC)c(CC(=O)N2CCc3cc(OC)c(OC)cc3C2)c1 |  | inconclusive: 79.4 µM [inhibitor, single point]
Cc1ccc(-c2nn(CCC(=O)O)cc2/C=C\C(=O)c2ccc(Br)cc2)cc1 |  | active: 39.8 µM
Cc1ccccc1C(=O)OCC(=O)NCc1ccco1 |  | active: 50.1 µM
O=C(CN1CCC(n2nnc3cc(C(F)(F)F)ccc32)CC1)NNC(=O)c1ccco1 |  | inconclusive: 89.1 µM [inhibitor, single point]
Cc1ccc(SCc2nc(-c3ccc(C(=O)Nc4cc(C)ccc4C)cc3)oc2C)cc1 | inactive: 16.6% | 
Cc1ccccc1C(OCC(O)CN1CCN(CCO)CC1)c1ccccc1 (stereo not drawn) |  | inconclusive: 28.2 µM [inhibitor, partial curve]

Compound | activity, negative = inhibition | Potency
COc1ccccc1N1CCN(C(=O)CCn2nc(C)c(S(=O)(=O)N3CCCC3)c2C)CC1 |  | inconclusive: 89.1 µM [inhibitor, single point]
O=C(COc1ccc2oc(-c3ccco3)cc(=O)c2c1)N1CCCCC1 |  | inconclusive: 79.4 µM [inhibitor, single point]
Cc1nn(S(=O)(=O)c2ccc(Cl)cc2)c(C)c1S(=O)(=O)N1CCOCC1 |  | inconclusive: 39.8 µM [inhibitor, partial curve, poor fit]
O=C(CSc1nnc(-c2ccco2)o1)c1ccc(F)c(F)c1 | inactive: 17.6% | 
CCOc1ccc2nc(SCC(=O)NCc3ccc(S(N)(=O)=O)cc3)[nH]c2c1 |  | inconclusive: 0.631 µM [inhibitor, full curve, poor fit]
COc1ccc(OC)c(NC(=O)COC(=O)c2ccc(OC)c(S(=O)(=O)N3CCOCC3)c2)c1 |  | inconclusive: 28.2 µM [inhibitor, single point]
COc1ccc(Nc2ccc(C(=O)O)cc2[N+](=O)[O-])cc1 | inactive: -17.1% | 
Cc1cccc(Nc2nc(C)nc3c2oc2ccccc23)c1 | inactive: -7.78% | 
CS(=O)(=O)n1nc(-c2ccco2)nc1NCc1ccccc1Cl |  | inconclusive: 89.1 µM [inhibitor, single point]
COc1ccc(-c2noc(-c3ccc(C)cc3Cl)n2)cc1OC | inactive: -10.5% | 
COc1c(Cl)cc(Cl)cc1C(=O)Nc1ccc(CN2CCCCC2)cc1 |  | inconclusive: 100 µM [inhibitor, single point]
O=C(NCc1ccco1)C1CC(c2c(Cl)cccc2Cl)=NO1 (stereo not drawn) |  | inconclusive: 20 µM [inhibitor, full curve]
COc1ccc(SCC(CC(C)C)N2CCN(CCc3ccccc3)CCC2=O)cc1 (stereo not drawn) | inactive: -17.4% | 
CN(C)CCc1cc2c(c3c1ccc1ccccc13)OCO2 |  | inconclusive: 25.1 µM [inhibitor, partial curve, poor fit]
Cc1ccc(C)c(N2CCN(C(=O)c3ccc4nc(-c5ccco5)c(-c5ccco5)nc4c3)CC2)c1 |  | inconclusive: 25.1 µM [inhibitor, partial curve, poor fit]
CCOc1ccc(C(=O)NCC2CCCO2)cc1 (stereo not drawn) |  | inconclusive: 79.4 µM [inhibitor, partial curve]
Cc1[nH]nc(SCC(=O)N2CCCC2)c1[N+](=O)[O-] |  | inconclusive: 70.8 µM [inhibitor, single point]
CC(=O)C(=Cc1ccc(C(=O)O)cc1)C(C)=O |  | inconclusive: 79.4 µM [inhibitor, partial curve]
Cc1cc(Br)ccc1OCCCCNC(C)(C)C |  | inconclusive: 35.5 µM [inhibitor, single point]
O=C1C2C3C=CC(C3)C2C(=O)N1/N=C/c1cc(Br)cc([N+](=O)[O-])c1O (stereo not drawn) |  | inconclusive: 11.2 µM [inhibitor, full curve, poor fit]
CNC(=O)COc1ccccc1C(=O)Nc1ccccc1 | inactive: 2.38% | 

Individual results from the results shown.
In activity, negative = inhibition, Cc1ccc(SCc2nc(-c3ccc(C(=O)Nc4cc(C)ccc4C)cc3)oc2C)cc1 has the entry inactive: 16.6%
In activity, negative = inhibition, O=c1c2ccc(Cl)cc2nc2n1CC/C2=C\c1cccc(O)c1 has the entry inactive: 6.27%
In Potency, COc1c(Cl)cc(Cl)cc1C(=O)Nc1ccc(CN2CCCCC2)cc1 has the entry inconclusive: 100 µM [inhibitor, single point]
